From article PMC11686847
Like-named read-outs stand apart in the source and are kept apart here. These are yes or no findings as the source states them, for the method shown. In cells and extracts the contact can be indirect. Some entries that bind do so weakly or less than the wild type. Sequences can lack the tags named with a protein.

Amino acid sequences for entries named in this document (tags omitted).
UniProt Q9H1A4: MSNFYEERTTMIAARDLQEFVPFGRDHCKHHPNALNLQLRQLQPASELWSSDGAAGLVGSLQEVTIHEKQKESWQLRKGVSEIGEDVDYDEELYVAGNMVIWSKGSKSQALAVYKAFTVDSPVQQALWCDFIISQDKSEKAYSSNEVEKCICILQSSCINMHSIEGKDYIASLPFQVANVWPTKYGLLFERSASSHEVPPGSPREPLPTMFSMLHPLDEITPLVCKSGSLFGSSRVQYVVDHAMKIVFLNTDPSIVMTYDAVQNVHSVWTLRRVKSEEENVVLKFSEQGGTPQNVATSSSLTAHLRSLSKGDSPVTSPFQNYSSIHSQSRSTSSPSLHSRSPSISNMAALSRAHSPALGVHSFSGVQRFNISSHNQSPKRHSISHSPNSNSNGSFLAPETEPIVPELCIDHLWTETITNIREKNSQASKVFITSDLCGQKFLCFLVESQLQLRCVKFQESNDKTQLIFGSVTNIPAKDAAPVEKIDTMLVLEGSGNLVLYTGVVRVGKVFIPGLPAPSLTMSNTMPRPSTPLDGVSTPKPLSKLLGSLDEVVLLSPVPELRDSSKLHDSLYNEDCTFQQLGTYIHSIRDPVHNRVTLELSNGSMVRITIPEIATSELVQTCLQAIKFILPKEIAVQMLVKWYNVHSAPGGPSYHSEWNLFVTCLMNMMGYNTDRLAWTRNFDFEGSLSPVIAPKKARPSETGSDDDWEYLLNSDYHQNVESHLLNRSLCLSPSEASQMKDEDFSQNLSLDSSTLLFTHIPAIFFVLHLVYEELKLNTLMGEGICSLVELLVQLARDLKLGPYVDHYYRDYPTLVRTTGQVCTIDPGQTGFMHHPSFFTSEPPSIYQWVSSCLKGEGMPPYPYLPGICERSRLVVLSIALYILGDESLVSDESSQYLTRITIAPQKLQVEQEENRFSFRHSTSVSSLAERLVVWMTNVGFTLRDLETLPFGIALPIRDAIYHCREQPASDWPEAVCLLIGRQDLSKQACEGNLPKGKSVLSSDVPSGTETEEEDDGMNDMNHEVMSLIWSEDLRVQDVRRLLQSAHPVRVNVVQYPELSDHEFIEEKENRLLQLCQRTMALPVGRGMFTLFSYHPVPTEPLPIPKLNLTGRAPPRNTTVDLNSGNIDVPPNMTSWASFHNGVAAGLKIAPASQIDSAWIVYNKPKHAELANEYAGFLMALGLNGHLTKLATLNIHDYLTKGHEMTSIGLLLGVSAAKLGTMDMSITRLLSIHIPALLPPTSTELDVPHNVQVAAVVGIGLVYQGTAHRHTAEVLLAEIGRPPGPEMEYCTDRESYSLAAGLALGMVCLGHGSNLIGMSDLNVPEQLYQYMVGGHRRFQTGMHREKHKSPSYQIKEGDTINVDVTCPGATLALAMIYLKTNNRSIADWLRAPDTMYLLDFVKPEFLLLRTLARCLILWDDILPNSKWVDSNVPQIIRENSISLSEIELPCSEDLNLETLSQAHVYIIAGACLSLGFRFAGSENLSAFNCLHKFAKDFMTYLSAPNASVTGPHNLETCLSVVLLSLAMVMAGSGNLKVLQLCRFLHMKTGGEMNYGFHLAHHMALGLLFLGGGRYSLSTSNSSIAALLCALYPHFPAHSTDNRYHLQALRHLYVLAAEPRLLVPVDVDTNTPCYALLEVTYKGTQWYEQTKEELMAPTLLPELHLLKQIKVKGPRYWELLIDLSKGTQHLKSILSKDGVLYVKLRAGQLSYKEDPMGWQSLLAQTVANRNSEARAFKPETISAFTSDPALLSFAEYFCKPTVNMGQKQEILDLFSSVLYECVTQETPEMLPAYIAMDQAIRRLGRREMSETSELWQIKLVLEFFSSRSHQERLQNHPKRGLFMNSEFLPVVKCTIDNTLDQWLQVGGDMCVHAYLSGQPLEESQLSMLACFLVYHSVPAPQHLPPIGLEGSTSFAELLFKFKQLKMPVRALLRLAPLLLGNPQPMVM
UniProt Q9BZB8: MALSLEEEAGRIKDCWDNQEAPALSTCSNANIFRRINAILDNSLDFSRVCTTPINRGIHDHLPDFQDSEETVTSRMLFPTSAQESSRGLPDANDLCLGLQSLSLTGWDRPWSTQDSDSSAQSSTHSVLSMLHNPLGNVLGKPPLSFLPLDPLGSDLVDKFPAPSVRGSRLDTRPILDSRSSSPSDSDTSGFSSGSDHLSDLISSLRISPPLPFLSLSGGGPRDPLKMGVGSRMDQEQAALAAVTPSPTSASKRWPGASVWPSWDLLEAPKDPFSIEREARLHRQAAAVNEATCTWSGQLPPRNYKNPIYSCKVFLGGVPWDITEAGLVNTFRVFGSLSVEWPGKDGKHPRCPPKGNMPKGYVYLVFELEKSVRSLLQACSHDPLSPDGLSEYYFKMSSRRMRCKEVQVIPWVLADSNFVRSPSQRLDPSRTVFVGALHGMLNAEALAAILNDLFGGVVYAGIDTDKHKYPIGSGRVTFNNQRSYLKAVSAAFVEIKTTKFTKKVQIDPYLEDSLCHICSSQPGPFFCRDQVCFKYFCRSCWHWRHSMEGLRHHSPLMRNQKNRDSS
UniProt Q13257: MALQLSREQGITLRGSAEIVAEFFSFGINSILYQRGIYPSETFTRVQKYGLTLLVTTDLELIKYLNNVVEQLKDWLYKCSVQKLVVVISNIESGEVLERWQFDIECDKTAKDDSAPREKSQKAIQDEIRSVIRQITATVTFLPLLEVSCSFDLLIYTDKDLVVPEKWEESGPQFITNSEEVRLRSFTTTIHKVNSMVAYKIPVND

T1: FLAG-tagged wild-type PATL2 (human) (UniProt C9JE40)
T1 sequence: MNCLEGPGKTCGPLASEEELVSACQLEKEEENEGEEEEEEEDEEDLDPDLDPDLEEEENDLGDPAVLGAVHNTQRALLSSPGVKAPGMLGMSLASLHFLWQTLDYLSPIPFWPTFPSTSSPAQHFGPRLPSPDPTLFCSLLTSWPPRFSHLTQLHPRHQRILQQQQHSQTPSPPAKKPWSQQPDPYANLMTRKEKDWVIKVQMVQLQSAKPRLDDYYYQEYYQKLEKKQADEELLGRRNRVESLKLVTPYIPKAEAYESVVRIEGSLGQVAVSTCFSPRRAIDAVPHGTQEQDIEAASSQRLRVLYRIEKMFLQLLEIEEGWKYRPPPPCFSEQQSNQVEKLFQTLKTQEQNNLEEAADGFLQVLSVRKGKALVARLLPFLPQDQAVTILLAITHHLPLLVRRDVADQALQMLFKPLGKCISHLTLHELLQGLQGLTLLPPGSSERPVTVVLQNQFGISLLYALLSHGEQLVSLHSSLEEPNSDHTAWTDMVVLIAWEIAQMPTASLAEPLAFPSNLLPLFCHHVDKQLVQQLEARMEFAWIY

T2: FLAG-tagged PATL2 V401F/R402W (human) (UniProt C9JE40)
T2 sequence: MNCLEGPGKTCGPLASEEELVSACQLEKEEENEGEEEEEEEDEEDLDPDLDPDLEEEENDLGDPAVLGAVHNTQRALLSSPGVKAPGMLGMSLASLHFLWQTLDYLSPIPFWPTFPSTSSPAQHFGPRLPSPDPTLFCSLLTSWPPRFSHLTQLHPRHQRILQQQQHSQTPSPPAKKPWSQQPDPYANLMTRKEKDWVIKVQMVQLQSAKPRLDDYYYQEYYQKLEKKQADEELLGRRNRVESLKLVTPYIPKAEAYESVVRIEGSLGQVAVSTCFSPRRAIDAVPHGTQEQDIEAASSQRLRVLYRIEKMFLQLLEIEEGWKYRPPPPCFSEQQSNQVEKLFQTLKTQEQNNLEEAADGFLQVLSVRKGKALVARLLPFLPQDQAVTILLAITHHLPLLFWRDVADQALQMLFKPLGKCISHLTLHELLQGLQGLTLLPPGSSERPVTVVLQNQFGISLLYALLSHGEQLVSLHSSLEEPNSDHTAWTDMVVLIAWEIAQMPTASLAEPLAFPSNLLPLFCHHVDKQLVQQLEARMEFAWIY

T3: FLAG-tagged PATL2 L424S (human) (UniProt C9JE40)
T3 sequence: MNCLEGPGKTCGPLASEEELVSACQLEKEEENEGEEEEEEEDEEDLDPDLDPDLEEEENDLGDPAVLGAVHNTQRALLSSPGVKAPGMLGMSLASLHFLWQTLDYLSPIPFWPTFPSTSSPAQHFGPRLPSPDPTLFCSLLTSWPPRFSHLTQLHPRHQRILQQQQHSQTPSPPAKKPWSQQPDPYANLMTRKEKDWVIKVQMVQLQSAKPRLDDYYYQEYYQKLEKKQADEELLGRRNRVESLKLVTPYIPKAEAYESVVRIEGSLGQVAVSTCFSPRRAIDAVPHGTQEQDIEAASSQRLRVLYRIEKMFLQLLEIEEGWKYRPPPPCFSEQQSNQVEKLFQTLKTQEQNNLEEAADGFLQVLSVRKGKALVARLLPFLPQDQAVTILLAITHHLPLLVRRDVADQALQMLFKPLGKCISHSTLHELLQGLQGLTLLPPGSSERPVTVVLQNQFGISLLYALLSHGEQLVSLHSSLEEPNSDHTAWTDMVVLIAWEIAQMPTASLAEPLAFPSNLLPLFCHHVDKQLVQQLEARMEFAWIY

T4: HA-tagged wild-type PATL2 expressed in human oocytes (human) (UniProt C9JE40)
T4 sequence: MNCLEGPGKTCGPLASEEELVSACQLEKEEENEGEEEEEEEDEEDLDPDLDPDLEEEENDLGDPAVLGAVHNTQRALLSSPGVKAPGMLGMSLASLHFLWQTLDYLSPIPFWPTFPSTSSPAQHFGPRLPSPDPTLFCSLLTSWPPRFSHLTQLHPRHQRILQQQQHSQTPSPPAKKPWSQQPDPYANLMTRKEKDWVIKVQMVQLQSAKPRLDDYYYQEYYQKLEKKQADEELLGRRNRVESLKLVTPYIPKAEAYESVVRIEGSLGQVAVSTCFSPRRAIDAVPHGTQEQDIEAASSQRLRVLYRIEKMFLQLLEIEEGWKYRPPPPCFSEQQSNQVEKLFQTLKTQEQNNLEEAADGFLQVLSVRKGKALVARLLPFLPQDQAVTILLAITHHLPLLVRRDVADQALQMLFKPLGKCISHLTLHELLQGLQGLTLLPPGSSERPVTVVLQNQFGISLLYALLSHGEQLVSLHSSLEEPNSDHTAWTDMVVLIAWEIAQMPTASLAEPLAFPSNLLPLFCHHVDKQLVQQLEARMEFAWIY

T5: HA-tagged wild-type PATL2 (human) (UniProt C9JE40)
T5 sequence: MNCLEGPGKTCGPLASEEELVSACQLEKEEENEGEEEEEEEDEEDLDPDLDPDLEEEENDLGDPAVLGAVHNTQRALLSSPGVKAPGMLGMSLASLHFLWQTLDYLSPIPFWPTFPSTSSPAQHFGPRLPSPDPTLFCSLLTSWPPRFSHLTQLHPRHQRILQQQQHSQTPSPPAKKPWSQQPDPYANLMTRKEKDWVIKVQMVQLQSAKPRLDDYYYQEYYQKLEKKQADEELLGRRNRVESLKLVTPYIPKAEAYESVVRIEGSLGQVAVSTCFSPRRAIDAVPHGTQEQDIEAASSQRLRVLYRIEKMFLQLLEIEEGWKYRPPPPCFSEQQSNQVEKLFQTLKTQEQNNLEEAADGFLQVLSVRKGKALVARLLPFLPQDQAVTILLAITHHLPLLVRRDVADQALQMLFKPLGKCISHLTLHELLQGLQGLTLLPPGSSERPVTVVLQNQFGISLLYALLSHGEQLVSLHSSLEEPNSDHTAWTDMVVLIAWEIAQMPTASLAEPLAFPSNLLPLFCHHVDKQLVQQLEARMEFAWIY


Experiments:
[1] = molecular target: T1, FLAG-tagged wild-type PATL2 (human); assay: co-IP; FLAG-PATL2 (WT or mutants) transfected into 293T cells; FLAG-M2 magnetic beads overnight at 4 °C; blots for endogenous CDC23, MAD2L1, APC1, TUT7; without RNase A
[2] = molecular target: T2, FLAG-tagged PATL2 V401F/R402W (human); assay: as above
[3] = molecular target: T3, FLAG-tagged PATL2 L424S (human); assay: as above
[4] = molecular target: T4, HA-tagged wild-type PATL2 expressed in human oocytes (human); assay: proximity ligation; human oocytes with or without microinjection of HA-PATL2 cRNA; antibodies against HA and the endogenous partner (TUT7 or CPEB1); PLA spots counted
[5] = molecular target: T1, FLAG-tagged wild-type PATL2 (human); assay: co-IP; as a2 (anti-FLAG, 293T cells expressing FLAG-PATL2) with 50 ng/ul RNase A treatment
[6] = molecular target: T1, FLAG-tagged wild-type PATL2 (human); assay: co-IP; FLAG-PATL2 (WT or mutants) transfected into 293T cells; FLAG-M2 magnetic beads overnight at 4 °C; blots for endogenous CDC23, MAD2L1, APC1, TUT7; without RNase A; remark: listed apart in the source
[7] = molecular target: T2, FLAG-tagged PATL2 V401F/R402W (human); assay: as above; remark: listed apart in the source
[8] = molecular target: T5, HA-tagged wild-type PATL2 (human); assay: co-IP; 293T cells with ectopic HA-PATL2 or PATL2 variants; blots with anti-HA and anti-TUT7 (endogenous TUT7)
[9] = molecular target: T4, HA-tagged wild-type PATL2 expressed in human oocytes (human); assay: proximity ligation; human oocytes with or without microinjection of HA-PATL2 cRNA; antibodies against HA and the endogenous partner (TUT7 or CPEB1); PLA spots counted; remark: listed apart in the source

Row | Molecule | binding [1] | binding [2] | binding [3] | further results
1 | APC1 (endogenous) (from UniProt Q9H1A4 1-1944) | binds | binds | binds | 
2 | CPEB1 (endogenous, human oocytes) (from UniProt Q9BZB8 1-566) |  |  |  | binding [4]: binds
3 | MAD2L1 (endogenous) (from UniProt Q13257 1-205) | binds | binds | binds | binding [5]: binds
4 | TUT7 (endogenous, 293T cells) (enzyme, UniProt Q5VYS8 1-1495) MGDTAKPYFVKRTKDRGTMDDDDFRRGHPQQDYLIIDDHAKGHGSKMEKGLQKKKITPGNYGNTPRKGPCAVSSNPYAFKNPIYSQPAWMNDSHKDQSKRWLSDEHTGNSDNWREFKPGPRIPVINRQRKDSFQENEDGYRWQDTRGCRTVRRLFHKDLTSLETTSEMEAGSPENKKQRSRPRKPRKTRNEENEQDGDLEGPVIDESVLSTKELLGLQQAEERLKRDCIDRLKRRPRNYPTAKYTCRLCDVLIESIAFAHKHIKEKRHKKNIKEKQEEELLTTLPPPTPSQINAVGIAIDKVVQEFGLHNENLEQRLEIKRIMENVFQHKLPDCSLRLYGSSCSRLGFKNSDVNIDIQFPAIMSQPDVLLLVQECLKNSDSFIDVDADFHARVPVVVCREKQSGLLCKVSAGNENACLTTKHLTALGKLEPKLVPLVIAFRYWAKLCSIDRPEEGGLPPYVFALMAIFFLQQRKEPLLPVYLGSWIEGFSLSKLGNFNLQDIEKDVVIWEHTDSAAGDTGITKEEAPRETPIKRGQVSLILDVKHQPSVPVGQLWVELLRFYALEFNLADLVISIRVKELVSRELKDWPKKRIAIEDPYSVKRNVARTLNSQPVFEYILHCLRTTYKYFALPHKITKSSLLKPLNAITCISEHSKEVINHHPDVQTKDDKLKNSVLAQGPGATSSAANTCKVQPLTLKETAESFGSPPKEEMGNEHISVHPENSDCIQADVNSDDYKGDKVYHPETGRKNEKEKVGRKGKHLLTVDQKRGEHVVCGSTRNNESESTLDLEGFQNPTAKECEGLATLDNKADLDGESTEGTEELEDSLNHFTHSVQGQTSEMIPSDEEEEDDEEEEEEEEPRLTINQREDEDGMANEDELDNTYTGSGDEDALSEEDDELGEAAKYEDVKECGKHVERALLVELNKISLKEENVCEEKNSPVDQSDFFYEFSKLIFTKGKSPTVVCSLCKREGHLKKDCPEDFKRIQLEPLPPLTPKFLNILDQVCIQCYKDFSPTIIEDQAREHIRQNLESFIRQDFPGTKLSLFGSSKNGFGFKQSDLDVCMTINGLETAEGLDCVRTIEELARVLRKHSGLRNILPITTAKVPIVKFFHLRSGLEVDISLYNTLALHNTRLLSAYSAIDPRVKYLCYTMKVFTKMCDIGDASRGSLSSYAYTLMVLYFLQQRNPPVIPVLQEIYKGEKKPEIFVDGWNIYFFDQIDELPTYWSECGKNTESVGQLWLGLLRFYTEEFDFKEHVISIRRKSLLTTFKKQWTSKYIVIEDPFDLNHNLGAGLSRKMTNFIMKAFINGRRVFGIPVKGFPKDYPSKMEYFFDPDVLTEGELAPNDRCCRICGKIGHFMKDCPMRRKVRRRRDQEDALNQRYPENKEKRSKEDKEIHNKYTEREVSTKEDKPIQCTPQKAKPMRAAADLGREKILRPPVEKWKRQDDKDLREKRCFICGREGHIKKECPQFKGSSGSLSSKYMTQGKASAKRTQQES |  |  |  | binding [6]: binds; binding [7]: binds; binding [8]: binds
5 | TUT7 (endogenous, human oocytes) (enzyme, UniProt Q5VYS8 1-1495) MGDTAKPYFVKRTKDRGTMDDDDFRRGHPQQDYLIIDDHAKGHGSKMEKGLQKKKITPGNYGNTPRKGPCAVSSNPYAFKNPIYSQPAWMNDSHKDQSKRWLSDEHTGNSDNWREFKPGPRIPVINRQRKDSFQENEDGYRWQDTRGCRTVRRLFHKDLTSLETTSEMEAGSPENKKQRSRPRKPRKTRNEENEQDGDLEGPVIDESVLSTKELLGLQQAEERLKRDCIDRLKRRPRNYPTAKYTCRLCDVLIESIAFAHKHIKEKRHKKNIKEKQEEELLTTLPPPTPSQINAVGIAIDKVVQEFGLHNENLEQRLEIKRIMENVFQHKLPDCSLRLYGSSCSRLGFKNSDVNIDIQFPAIMSQPDVLLLVQECLKNSDSFIDVDADFHARVPVVVCREKQSGLLCKVSAGNENACLTTKHLTALGKLEPKLVPLVIAFRYWAKLCSIDRPEEGGLPPYVFALMAIFFLQQRKEPLLPVYLGSWIEGFSLSKLGNFNLQDIEKDVVIWEHTDSAAGDTGITKEEAPRETPIKRGQVSLILDVKHQPSVPVGQLWVELLRFYALEFNLADLVISIRVKELVSRELKDWPKKRIAIEDPYSVKRNVARTLNSQPVFEYILHCLRTTYKYFALPHKITKSSLLKPLNAITCISEHSKEVINHHPDVQTKDDKLKNSVLAQGPGATSSAANTCKVQPLTLKETAESFGSPPKEEMGNEHISVHPENSDCIQADVNSDDYKGDKVYHPETGRKNEKEKVGRKGKHLLTVDQKRGEHVVCGSTRNNESESTLDLEGFQNPTAKECEGLATLDNKADLDGESTEGTEELEDSLNHFTHSVQGQTSEMIPSDEEEEDDEEEEEEEEPRLTINQREDEDGMANEDELDNTYTGSGDEDALSEEDDELGEAAKYEDVKECGKHVERALLVELNKISLKEENVCEEKNSPVDQSDFFYEFSKLIFTKGKSPTVVCSLCKREGHLKKDCPEDFKRIQLEPLPPLTPKFLNILDQVCIQCYKDFSPTIIEDQAREHIRQNLESFIRQDFPGTKLSLFGSSKNGFGFKQSDLDVCMTINGLETAEGLDCVRTIEELARVLRKHSGLRNILPITTAKVPIVKFFHLRSGLEVDISLYNTLALHNTRLLSAYSAIDPRVKYLCYTMKVFTKMCDIGDASRGSLSSYAYTLMVLYFLQQRNPPVIPVLQEIYKGEKKPEIFVDGWNIYFFDQIDELPTYWSECGKNTESVGQLWLGLLRFYTEEFDFKEHVISIRRKSLLTTFKKQWTSKYIVIEDPFDLNHNLGAGLSRKMTNFIMKAFINGRRVFGIPVKGFPKDYPSKMEYFFDPDVLTEGELAPNDRCCRICGKIGHFMKDCPMRRKVRRRRDQEDALNQRYPENKEKRSKEDKEIHNKYTEREVSTKEDKPIQCTPQKAKPMRAAADLGREKILRPPVEKWKRQDDKDLREKRCFICGREGHIKKECPQFKGSSGSLSSKYMTQGKASAKRTQQES |  |  |  | binding [9]: binds
